Results are given in words; binding and its absence hold for the method and conditions named. In cells and extracts the contact can be indirect. Here binding means that the protein was enriched with, or labelled near, the bait; the list need not be complete.
Tests used:
[1] = biological target: SOD1^Leu126delTT with a FLAG sequence at C terminal (DF mutant SOD1) (human) (UniProt P00441); experiment: affinity purification with mass spectrometry; spinal cord of mice aged 145 days (DF symptomatic; WF); extract in 0.15 M NaCl, 10 mM Tris-HCl, 1% Triton X-100, pH 7.4; anti-FLAG M2 affinity gel, elution with 3xFLAG peptide, trypsin digest, LC-MS/MS
[2] = biological target: SOD1^Leu126delTT with a FLAG sequence at C terminal (DF mutant SOD1) (human) (UniProt P00441); experiment: affinity purification with mass spectrometry; spinal cord of presymptomatic DF mice aged 35 days; same lysis buffer; anti-FLAG M2 affinity gel, elution with 3xFLAG peptide, LC-MS/MS
[3] = biological target: SOD1^Leu126delTT with a FLAG sequence at C terminal (DF mutant SOD1) (human) (UniProt P00441); experiment: affinity purification with mass spectrometry; cerebellum of DF mice aged 145 days; same lysis buffer; anti-FLAG M2 affinity gel, elution with 3xFLAG peptide, LC-MS/MS

Amino acid sequences for entries named in this document (tags omitted). A change or cut given only in a name is not applied to a line headed by its entry.
UniProt P00441: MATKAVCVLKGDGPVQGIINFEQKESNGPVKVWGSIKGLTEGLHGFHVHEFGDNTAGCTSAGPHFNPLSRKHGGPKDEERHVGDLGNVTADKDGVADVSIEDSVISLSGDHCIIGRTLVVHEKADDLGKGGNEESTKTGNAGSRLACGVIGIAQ

Row | binding [1] | binding [2] | binding [3] | Binder
1 | binds | – | – | solute carrier family 25, member 5 (protein, UniProt P51881 1-298) MTDAAVSFAKDFLAGGVAAAISKTAVAPIERVKLLLQVQHASKQITADKQYKGIIDCVVRIPKEQGVLSFWRGNLANVIRYFPTQALNFAFKDKYKQIFLGGVDKRTQFWRYFAGNLASGGAAGATSLCFVYPLDFARTRLAADVGKAGAEREFKGLGDCLVKIYKSDGIKGLYQGFNVSVQGIIIYRAAYFGIYDTAKGMLPDPKNTHIFISWMIAQSVTAVAGLTSYPFDTVRRRMMMQSGRKGTDIMYTGTLDCWRKIARDEGSKAFFKGAWSNVLRGMGGAFVLVLYDEIKKYT
2 | binds | – | – | latexin (protein, UniProt P70202 1-222) MEIPPTHYAASRAASVAENCINYQQGTPHKLFLVQTVQQASKEDIPGRGHKYHLKFSVEEIIQKQVTVNCTAEVLYPQMGQGSAPEVNFTFEGEIGKNPDEEDNTFYQSLMSLKRPLEAQDIPDNFGNVSPQMKPVQHLAWVACGYVMWQNSTEDTWYKMLKIQTVKQVQRNDDFIELDYTILLHDIASQEIIPWQMQVLWHPQYGTKVKHNSRLPKEGQAE
3 | binds | – | – | glutamate oxaloacetate transaminase 2 (protein, UniProt P05202 30-430) SSWWTHVEMGPPDPILGVTEAFKRDTNSKKMNLGVGAYRDDNGKPYVLPSVRKAEAQIAAKNLDKEYLPIGGLAEFCKASAELALGENNEVLKSGRFVTVQTISGTGALRVGASFLQRFFKFSRDVFLPKPSWGNHTPIFRDAGMQLQGYRYYDPKTCGFDFSGALEDISKIPEQSVLLLHACAHNPTGVDPRPEQWKEIASVVKKKNLFAFFDMAYQGFASGDGDKDAWAVRHFIEQGINVCLCQSYAKNMGLYGERVGAFTVVCKDAEEAKRVESQLKILIRPLYSNPPLNGARIAATILTSPDLRKQWLQEVKGMADRIISMRTQLVSNLKKEGSSHNWQHITDQIGMFCFTGLKPEQVERLTKEFSVYMTKDGRISVAGVTSGNVGYLAHAIHQVTK
4 | binds | – | – | brain glycogen phosphorylase (protein, UniProt Q8CI94 1-843) MAKPLTDSERQKQISVRGIAGLGDVAEVRKSFNRHLHFTLVKDRNVATPRDYFFALAHTVRDHLVGRWIRTQQHYYERDPKRIYYLSLEFYMGRTLQNTMVNLGLQTACDEATYQLGLDLEELEEIEEDAGLGNGGLGRLAACFLDSMATLGLAAYGYGIRYEFGIFNQKIVNGWQVEEADDWLRYGNPWEKARPEYMLPVHFYGRVEHTPDGVLWLDTQVVLAMPYDTPVPGYKNNTVNTMRLWSAKAPNDFKLKDFNVGDYIEAVLDRNLAENISRVLYPNDNFFEGKELRLKQEYFVVAATLQDIIRRFKSSRFGCRDPVRTCFETFPDKVAIQLNDTHPALSIPELMRILVDVEKVDWDKAWEITKKTCAYTNHTVLPEALERWPVSMFEKLLPRHLEIIYAINQRHLDHVAALFPGDVDRLRRMSVIEEGDCKRINMAHLCVIGSHAVNGVARIHSEIVKQSVFKDFYELEPEKFQNKTNGITPRRWLLLCNPGLAEIIVERIGEGFLTDLSQLKKLLSLVDDEAFIRDVAKVKQENKLKFSAQLEKEYKVKINPASMFDVHVKRIHEYKRQLLNCLHIITLYNRIKKDPAKAFVPRTVMIGGKAAPGYHMAKMIIKLVTSIGDVVNHDPVVGDRLRVIFLENYRVSLAEKVIPAADLSQQISTAGTEASGTGNMKFMLNGALTIGTMDGANVEMAEEAGEENLFIFGMRVEDVEALDQKGYNAREFYERLPELRQAVDQISSGFFSPKDPDCFKDVVNMLMYHDRFKVFADYEAYIQCQAQVDRLYRNSKEWTKKVIRNIACSGKFSSDRTITEYAREIWGVEPSDLQIPPPNLPKD
5 | binds | binds | – | 2′,3′-cyclic-nucleotide 3′-phosphodiesterase I (protein, UniProt P16330 1-420) MNTSFTRKSHTFLPKLFFRKMSSSGAKEKPELQFPFLQDEDTVATLHECKTLFILRGLPGSGKSTLARLILEKYHDGTKMVSADAYKIIPGSRADFSEAYKRLDEDLAGYCRRDIRVLVLDDTNHERERLDQLFEMADQYQYQVVLVEPKTAWRLDCAQLKEKNQWQLSADDLKKLKPGLEKDFLPLYFGWFLTKKSSETLRKAGQVFLEELGNHKAFKKELRHFISGDEPKEKLELVSYFGKRPPGVLHCTTKFCDYGKAAGAEEYAQQEVVKRSYGKAFKLSISALFVTPKTAGAQVVLTDQELQLWPSDLDKPSASEGLPPGSRAHVTLGCAADVQPVQTGLDLLDILQQVKGGSQGEAVGELPRGKLYSLGKGRWMLSLTKKMEVKAIFTGYYGKGKPVPIHGSRKGGAMQICTII
6 | binds | – | binds | aconitase 2 (protein, UniProt Q99KI0 28-780) QRAKVAMSHFEPSEYIRYDLLEKNINIVRKRLNRPLTLSEKIVYGHLDDPANQEIERGKTYLRLRPDRVAMQDATAQMAMLQFISSGLPKVAVPSTIHCDHLIEAQVGGEKDLRRAKDINQEVYNFLATAGAKYGVGFWRPGSGIIHQIILENYAYPGVLLIGTDSHTPNGGGLGGICIGVGGADAVDVMAGIPWELKCPKVIGVKLTGSLSGWTSPKDVILKVAGILTVKGGTGAIVEYHGPGVDSISCTGMATICNMGAEIGATTSVFPYNHRMKKYLSKTGRTDIANLAEEFKDHLVPDPGCQYDQVIEINLNELKPHINGPFTPDLAHPVADVGTVAEKEGWPLDIRVGLIGSCTNSSYEDMGRSAAVAKQALAHGLKCKSQFTITPGSEQIRATIERDGYAQILRDVGGIVLANACGPCIGQWDRKDIKKGEKNTIVTSYNRNFTGRNDANPETHAFVTSPEIVTALAIAGTLKFNPETDFLTGKDGKKFKLEAPDADELPRSDFDPGQDTYQHPPKDSSGQRVDVSPTSQRLQLLEPFDKWDGKDLEDLQILIKVKGKCTTDHISAAGPWLKFRGHLDNISNNLLIGAINIENGKANSVRNAVTQEFGPVPDTARYYKKHGIRWVVIGDENYGEGSSREHAALEPRHLGGRAIITKSFARIHETNLKKQGLLPLTFADPSDYNKIHPVDKLTIQGLKDFAPGKPLKCVIKHPNGTQETILLNHTFNETQIEWFRAGSALNRMKELQQ
7 | binds | – | – | solute carrier family 25, member 4 (protein, UniProt P48962 1-298) MGDQALSFLKDFLAGGIAAAVSKTAVAPIERVKLLLQVQHASKQISAEKQYKGIIDCVVRIPKEQGFLSFWRGNLANVIRYFPTQALNFAFKDKYKQIFLGGVDRHKQFWRYFAGNLASGGAAGATSLCFVYPLDFARTRLAADVGKGSSQREFNGLGDCLTKIFKSDGLKGLYQGFSVSVQGIIIYRAAYFGVYDTAKGMLPDPKNVHIIVSWMIAQSVTAVAGLVSYPFDTVRRRMMMQSGRKGADIMYTGTLDCWRKIAKDEGANAFFKGAWSNVLRGMGGAFVLVLYDEIKKYV
8 | – | – | binds | protein phosphatase 1B (protein, UniProt P36993 1-390) MGAFLDKPKTEKHNAHGAGNGLRYGLSSMQGWRVEMEDAHTAVVGIPHGLDNWSFFAVYDGHAGSRVANYCSTHLLEHITTNEDFRAADKSGSALEPSVESVKTGIRTGFLKIDEYMRNFSDLRNGMDRSGSTAVGVMVSPTHMYFINCGDSRAVLCRNGQVCFSTQDHKPCNPVEKERIQNAGGSVMIQRVNGSLAVSRALGDYDYKCVDGKGPTEQLVSPEPEVYEIVRAEEDEFVVLACDGIWDVMSNEELCEFVKSRLEVSDDLENVCNWVVDTCLHKGSRDNMSVVLVCFSNAPKVSEEAVKRDSELDKHLESRVEEIMQKSGEEGMPDLAHVMRILSAENIPNLPPGGGLAGKRHVIEAVYSRLNPHKDNDGGAGDLEDSLVAL
9 | binds | – | – | phosphofructokinase 1 (protein, UniProt P47857 1-780) MTHEEHHAAKTLGIGKAIAVLTSGGDAQGMNAAVRAVVRVGIFTGARVFFVHEGYQGLVDGGEHIREATWESVSMMLQLGGTVIGSARCKDFREREGRLRAAHNLVKRGITNLCVIGGDGSLTGADTFRSEWSDLLNDLQKDGKITAEEATKSSYLNIVGLVGSIDNDFCGTDMTIGTDSALHRIVEIVDAITTTAQSHQRTFVLEVMGRHCGYLALVTSLSCGADWVFIPECPPDDDWEEHLCRRLSETRTRGSRLNIIIVAEGAIDKNGKPITSEDIKNLVVKRLGYDTRVTVLGHVQRGGTPSAFDRILGSRMGVEAVMALLEGTPDTPACVVSLSGNQAVRLPLMECVQVTKDVTKAMDEKRFDEAIKLRGRSFMNNWEVYKLLAHVRPPVSKGGLHTVAVMNVGAPAAGMNAAVRSTVRIGLIQGNRVLVVHDGFEGLAKGQIEEAGWSYVGGWTGQGGSKLGTKRTLPKKNLEQISANITKFNIQGLVIIGGFEAYTGGLELMEGRKQFDELCIPFVVIPATVSNNVPGSDFSIGADTALNTICTTCDRIKQSAAGTKRRVFIIETMGGYCGYLATMAGLAAGADAAYIFEEPFTIRDLQVNVEHLVQKMKTTVKRGLVLRNEKCNENYTTDFIFNLYSEEGKGIFDSRKNVLGHMQQGGSPTPFDRNFATKMGAKAMNWMSGKIKESYRNGRIFANTPDSGCVLGMRKRALVFQPVTELKDQTDFEHRIPKEQWWLKLRPILKILAKYEIDLDTSDHAHLEHISRKRSGEAAV
